The list shows a part of the results.
System: T1, CTL2-GFP (C. trachomatis L2/434/Bu, GFP-expressing)
T1 construct: L2/434/Bu, GFP-expressing
Design: species or system HeLa; Intracellular C. trachomatis growth in HeLa cells, bulk GFP fluorescence relative to DMSO
Conditions: bulk GFP, single well; 28.5 h, 10 µM; inhibitor

SMILES | % of control remaining
Cc1cc(C)n(-c2ccccc2O)n1 [CBK026493] | 120.617%
OCCOc1ccc(Cl)c2cccnc12 [CBK000620] | 139.059%
CC1CCN(CC(O)c2ccc3c(c2)CCN3C(=O)C2CC2)CC1 (centres unmarked) [CBK282927] | 95.0258%
CC(=O)Nc1ccc(N2CCN(CCO)CC2)cc1OCCCOc1ccccc1 [CBK074317T] | 70.7793%
CCN(CCC(F)(F)F)C(=O)Cc1csc(NC(=O)c2ccoc2C)n1 [CBK305729] | 123.982%
CCNC(=O)N1CCC(Oc2cc(C)ccc2F)(C(=O)O)CC1 [CBK307147] | 121.576%
COc1cccc(OCC2CCCN(C(=O)CCc3cnn(C)c3)C2)c1 (centres unmarked) [CBK306931] | 143.571%
Cn1c(=O)c2c(nc(CN3CCCCC3)n2CC(=O)c2ccccc2)n(C)c1=O [CBK269563] | 118.103%
CCCS(=O)(=O)n1c(=O)n(Cc2ccc(OC)cc2)c2ccccc21 [CBK106553] | 160.524%
CCC1CCCN(C(=O)Cc2c(C)nc(-c3cccnc3)[nH]c2=O)C1 (centres unmarked) [CBK305801] | 111.072%
N#CCCc1ccc(Oc2ncc(C(F)(F)F)cc2Cl)cc1 [CBK161635] | 97.3692%
Cc1cccc(C)c1N1C(=O)c2ccccc2NC12C(=O)Nc1ccc([N+](=O)[O-])cc12 (centres unmarked) [CBK103749] | 130.181%
O=C(O)c1ccc(CN2CCC3(C/C=C/CNC(=O)c4ccccc4OCCNC3=O)CC2)cc1 [CBK292002] | 113.692%
CN1CCN(C)C(COc2ccc(C(F)(F)F)cn2)C1 (centres unmarked) [CBK113288] | 139.537%
CNc1nc(C2CCN(C(=O)c3ccc(N4CCC(C)CC4)cc3)C2)nc2c1CCN(C)C2 (centres unmarked) [CBK285835] | 120.765%
Cn1c(=O)c2c(nc(NCCOCCO)n2C)n(C)c1=O [CBK288164] | 111.366%
Cc1nn(-c2ccc(N3CCNCC3)nn2)c(=O)c2ccccc12 [CBK270067] | 155.375%
CCn1c(=O)n(CC(=O)NCc2cccc(F)c2)c2cccnc21 [CBK283891] | 99.4883%
Cc1ccc(S(=O)(=O)c2cccc(S(N)(=O)=O)c2)cc1S(N)(=O)=O [CBK264535] | 127.96%
Clc1ccccc1CSc1nc[nH]n1 [CBK026950] | 102.538%
COC(=O)c1ccccc1NC(=O)C(C)Oc1ccc(Cl)cc1C (centres unmarked) [CBK262388] | 131.668%
CCOc1cc(/C=C2\N=C(c3ccc(OC)cc3)OC2=O)cc(Br)c1OCC(=O)OC [CBK102552] | 115.746%
COCCc1noc(CC2CCN(c3ncncc3C#N)CC2)n1 [CBK304178] | 115.618%
COC(=O)c1ccsc1NS(=O)(=O)c1cc(F)c(Br)cc1F [CBK039068] | 154.751%
O=C(NCCCn1ccnc1)c1cc2c(ccc3ccccc32)oc1=O [CBK263543] | 100%
O=C(Nc1ccc(-c2nc3cc(-c4nc5cc(NC(=O)c6cccs6)ccc5[nH]4)ccc3[nH]2)cc1)c1cccs1 [CBK261614] | 100%
COCc1nnc(Sc2nccc(C(F)(F)F)n2)s1 [CBK093790] | 103.515%

SMILES | % of control remaining
CC(=O)N1CCN(CC[C@@H]2CC[C@H](O)[C@@H](C(=O)N(C)Cc3ccccc3)O2)CC1 [CBK288716] | 103.596%
CS(=O)(=O)Nc1ccc2cc(-c3ccsc3)cnc2n1 [CBK085665] | 117.622%
O=C(Cn1cccc(C(=O)NC2CCCCC2)c1=O)Nc1nc2c(s1)CCCCC2 [CBK286056] | 137.684%
Cc1ccn2cc(CNC(=O)CCC(C)N3CCN(C)CC3)nc2c1 (centres unmarked) [CBK306628] | 131.983%
CCn1c(CN2CCC(n3nc(C)cc3C)CC2)nc2ccccc21 [CBK281615] | 110.143%
Cc1cc2c(s1)c1cnn(Cc3ccncc3)c(=O)c1n2C [CBK284188] | 101.003%
O=C(CSc1nnc(Cc2ccccc2)n1-c1ccc(Cl)cc1)Nc1cc(Cl)ccc1O [CBK269061] | 154.543%
OCC1CCC(O)C(CO)N1 (centres unmarked) [CBK022827C] | 110.417%
O=C(O)c1cccc(NC(=O)c2cc(-n3cnnc3)ccc2Cl)c1 [CBK268026] | 103.941%
C[S+]([O-])CCn1c2ccccc2c2c(N3CCCC3)nc(N3CCCC3)nc21 (centres unmarked) [CBK017586] | 123.832%
COCCn1c(SC(C)C(=O)N2CCNC2=O)nc2ccccc21 (centres unmarked) [CBK305832] | 107.034%
COc1ccc(-c2nc(=S)c3c(n2CCCN(C)C)CC(C)(C)OC3)cc1 [CBK267844] | 123.71%
Oc1ccc(-c2n[nH]c(C(F)(F)F)c2Oc2ccc(F)cc2)c(O)c1 [CBK264440] | 85.452%
COc1cccc(CNCC2CCCO2)c1OCc1ccccc1 (centres unmarked) [CBK269798C] | 68.8621%
Cc1nccn1CCC(=O)NC(c1ccncc1)c1cccs1 (centres unmarked) [CBK281440] | 130.73%
CCCC/C=C/c1cc(NCCC)n2nccc2n1 [CBK037127] | 78.2444%
O=S(=O)(c1ccc(-c2ccccc2)cc1)N1CCCN(Cc2ccc(F)c(C(F)(F)F)c2)CC1 [CBK063115] | 103.873%
CCCS(=O)(=O)N1Cc2c(ncn2C)C[C@H]1C(=O)OC [CBK288991] | 152.459%
O[C@H]1[C@H](NCC2CC2)[C@H]2CO[C@H](O2)[C@@H]1N1CCOCC1 [CBK288819] | 141.455%
COc1ccc(CCNC(=O)CCCc2cn(C)c3ccccc23)cc1OC [CBK061740] | 106.548%
Cc1c(CN(Cc2ccccc2)CC2CCCO2)cnn1C (centres unmarked) [CBK283263] | 112.81%
CCC(C)(CC(=O)O)CC(=O)N1CCC2(CC1)OCCc1c2[nH]c2ccccc12 (centres unmarked) [CBK047051] | 116.781%
O=C(Nn1cnnc1)c1cccc(C(=O)Nn2cnnc2)c1 [CBK091759] | 110.822%
CCSc1nc(SCC)c2c3c([nH]c2n1)CCCC3 [CBK019936] | 122.647%
Cn1c(-c2ccc(-c3nc4cnccc4n3C)cc2)nc2cnccc21 [CBK261423] | 119.346%
Cc1ccc(OCC(O)CN(C)S(=O)(=O)O)c([N+](=O)[O-])c1 (centres unmarked) [CBK262062K] | 98.0683%
CN1CCN(c2ccc(-c3cc(NC4CCCCC4)ncn3)cn2)CC1 [CBK090899] | 85.2861%

SMILES | % of control remaining
COCCn1c(SC(C)C(=O)NC2CC2)nc2ccc(Br)cc2c1=O (centres unmarked) [CBK305481] | 102.592%
O=C(NCc1c(F)cccc1F)C1(c2ccccc2)CCCC1 [CBK149527] | 70.8491%
COc1ccc(C)cc1NS(=O)(=O)CC(C)C [CBK111346] | 69.3395%
COc1cc(CN2CCNCC2)c2ccn(S(=O)(=O)c3cccc(Cl)c3C)c2c1 [CBK144484T] | 48.7932%
CCOc1ccc(C(=O)NC2CC3CCC(C2)N3Cc2ccc(OC)cc2)cc1 (centres unmarked) [CBK121398] | 125.496%
CC(=O)N(C)c1nc(-c2ccco2)ccc1C(=O)Nc1cc(C)nn1C [CBK106356] | 138.031%
CSCCC(NC(=O)c1ccc(C#CC(C)(C)O)cc1)C(=O)O (centres unmarked) [CBK276698] | 132.053%
CCOC(=O)CN1CCC(Oc2cncc(Oc3ccc(OC)c(OC)c3)n2)C1 (centres unmarked) [CBK084405] | 126.563%
CCCC(=O)Nc1cccnc1N1CCNCC1 [CBK004732T] | 123.035%
C[N+]1(CC(=O)c2ccccc2)C2CCC1CC(OC(=O)C(O)c1ccccc1)C2 (centres unmarked) [CBK022712C] | 124.512%
COCCc1nc(CN(C)C)n(Cc2ccccc2C)n1 [CBK307014] | 172.465%
Cc1ccc(N(CC(O)CN2CCCC2)S(=O)(=O)c2ccccc2)cc1 (centres unmarked) [CBK264739] | 112.776%
CCCC(=O)N1CCC(Cc2ccc(-c3cccc(C)c3)cc2)(C(=O)NC(C)C)CC1 [CBK285760] | 142.101%
O=C(Nc1nc2ccccc2s1)NC1CC1 [CBK007542] | 98.3197%
O=C(O)CCn1c(CO)nc2ccccc21 [CBK111473] | 90.06%
CC(=O)OC(C(=O)O)C(OC(C)=O)c1nc2ccccc2s1 (centres unmarked) [CBK264076] | 97.7857%
COC(=O)c1ccc(C(=O)OC)c(NC(=O)C2CCCCC2C(=O)O)c1 (centres unmarked) [CBK265422] | 100%
CC(C)(C)C(=O)N1CCc2cc(C(O)CN3CCCC3)ccc21 (centres unmarked) [CBK282923] | 115.756%
Cc1ccc(NC(=O)COC(=O)CCc2c[nH]c(=O)[nH]2)cc1 [CBK265562] | 101.356%
COc1cc(CC(=O)N2CCc3c(sc4ncnc(N)c34)C2)ccc1C [CBK306013] | 117.23%
Cc1ccc(N(C(=O)COc2ccc(C(C)(C)C)cc2)C2C=CS(=O)(=O)C2)cc1 (centres unmarked) [CBK265811] | 115.159%
Cc1cc(O)cc(C2CCCN(C(=O)CC3CCCC3)C2)n1 (centres unmarked) [CBK283422] | 121.162%
CCS(=O)(=O)c1nc2ccccc2n1CC(=O)Nc1ccccc1C(=O)OC [CBK267877] | 97.7978%
Cc1cc2occ(CC(=O)NCC(C)n3cncn3)c2cc1C (centres unmarked) [CBK282614] | 108.414%
O=C(Nc1ccc(Cl)nc1)C(F)(F)F [CBK091339] | 76.3519%
O=C(CSc1ccccn1)Nc1ccc(C(=O)O)cc1 [CBK286605] | 148.528%

Gathered by group: the entries above containing a cyano group (2)
SMILES | % of control remaining
N#CCCc1ccc(Oc2ncc(C(F)(F)F)cc2Cl)cc1 [CBK161635] | 97.3692%
COCCc1noc(CC2CCN(c3ncncc3C#N)CC2)n1 [CBK304178] | 115.618%

In a second layout: results already given.

| SMILES | % of control remaining |
| --- | --- |
| O=C(Cn1cccc(C(=O)NC2CCCCC2)c1=O)Nc1nc2c(s1)CCCCC2 [CBK286056] | 137.684% |
| Cc1ccn2cc(CNC(=O)CCC(C)N3CCN(C)CC3)nc2c1 (centres unmarked) [CBK306628] | 131.983% |
